In article PMC9346486:
Results are given in words; binding and its absence hold for the method and conditions named. In cells and extracts the contact can be indirect. Some entries that bind do so weakly or less than the wild type.

Protein sequences, listed by entry. Tags and fused reporters are not part of them.
UniProt P08670: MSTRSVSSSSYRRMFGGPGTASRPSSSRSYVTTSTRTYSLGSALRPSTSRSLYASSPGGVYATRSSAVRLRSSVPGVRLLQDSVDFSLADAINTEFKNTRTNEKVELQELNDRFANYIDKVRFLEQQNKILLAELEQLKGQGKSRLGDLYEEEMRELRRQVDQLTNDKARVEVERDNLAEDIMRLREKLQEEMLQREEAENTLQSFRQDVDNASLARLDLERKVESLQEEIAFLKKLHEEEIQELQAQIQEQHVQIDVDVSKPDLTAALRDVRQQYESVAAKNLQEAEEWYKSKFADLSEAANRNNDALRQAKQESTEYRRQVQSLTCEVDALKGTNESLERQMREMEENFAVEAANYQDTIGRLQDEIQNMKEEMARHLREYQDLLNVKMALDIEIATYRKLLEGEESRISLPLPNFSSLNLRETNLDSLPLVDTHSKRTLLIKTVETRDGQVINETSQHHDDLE
UniProt O14744: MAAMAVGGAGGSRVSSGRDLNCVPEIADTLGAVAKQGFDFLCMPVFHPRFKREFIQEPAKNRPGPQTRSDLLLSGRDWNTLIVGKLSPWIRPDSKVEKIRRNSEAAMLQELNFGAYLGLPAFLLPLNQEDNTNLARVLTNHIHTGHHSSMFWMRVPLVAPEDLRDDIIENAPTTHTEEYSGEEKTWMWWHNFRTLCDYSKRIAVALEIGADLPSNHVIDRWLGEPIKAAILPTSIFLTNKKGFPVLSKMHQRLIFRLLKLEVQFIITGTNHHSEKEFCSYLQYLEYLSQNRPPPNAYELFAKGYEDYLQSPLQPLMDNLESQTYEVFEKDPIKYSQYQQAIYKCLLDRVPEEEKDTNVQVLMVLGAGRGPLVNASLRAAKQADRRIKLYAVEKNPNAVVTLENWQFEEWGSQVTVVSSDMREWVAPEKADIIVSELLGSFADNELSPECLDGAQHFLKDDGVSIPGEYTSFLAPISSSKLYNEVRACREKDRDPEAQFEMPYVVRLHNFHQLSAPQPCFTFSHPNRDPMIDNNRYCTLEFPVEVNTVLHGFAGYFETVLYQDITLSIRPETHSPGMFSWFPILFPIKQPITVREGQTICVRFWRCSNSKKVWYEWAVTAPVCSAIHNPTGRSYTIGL

Target: vimentin (human (endogenous in CL1-5)) (UniProt P08670)
Test: co-IP; endogenous proteins from lysates of CL1-5 Mock and MTAP-overexpressing cells; lysis buffer 50 mM Tris-HCl pH 7.4, 1% NP-40, 150 mM NaCl, 1 mM EDTA; Protein A/G PLUS-Agarose beads; Western blot; the precipitating antibody is not given

- binding: binds
Substance: protein arginine methyltransferase 5 (from UniProt O14744 1-637) (enzyme)
